Earlier results as cited in patent US20220183999A1, “Cannabidiol Pharmaceutical Compositions” (Sorrento Therapeutics, Inc., priority 2019, published 2022).
In brackets after ≈: the same amount, converted by molar mass.

C=C(C)[C@@H]1CCC(C)=C[C@H]1c1c(O)cc(CCCCC)cc1O [CBD, Cannabidiol]
solubility in water: 13 µg/mL (≈ 41.3 µM)
